Laboratory results from US20060003326.
The exact form of at least one protein or probe is not confirmed.

Chains of the proteins cited; added tags and fusions are not shown.
UniProt P01148, whole entry, looked up, tested part not stated: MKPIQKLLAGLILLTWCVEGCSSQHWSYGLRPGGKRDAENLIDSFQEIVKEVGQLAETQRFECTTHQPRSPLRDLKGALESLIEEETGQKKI

Molecular target: GnRH I (gonadotropin releasing hormone, gonadoliberin, decapeptide) (UniProt P01148)
Experiment: activity in cells
Details: L-DNA (all L-nucleotides), GnRH (2 nM) preincubated 20 min with spiegelmer, Ca2+ release in CHO cells expressing human GnRH receptor (FLIPR), single-stranded DNA, mirror-image nucleic acid

Sequence | IC50 | IC50 (5'-aminohexyl linker with branched 40 kDa PEG, variant of GnRH DNA spiegelmer (non-PEGylated))
CCAAGCTTGCGTAAGCAGTCTCCTCTCAGGGGAGGTTGGGCGGTGCGTAAGCACCGGTTTGCAGGGG [GnRH DNA spiegelmer (non-PEGylated)] | 20 nM | –
CCAAGCTTGCGTAAGCAGTCTCCTCTCAGGGGAGGTTGGGCGGTGCGTAAGCACCGGTTTGCAGGGG [PEG-GnRH DNA spiegelmer] | – | 30 nM
